From patent US8486651B2, “Method for treating a disorder associated with Eya dysregulation by modulating Eya phosphatase activity” (Children's Hospital Medical Center, priority 2008, dated 2013)

By UniProt entry, the sequences of proteins in these tests, tags left out. Where a name states a change or a piece, a line headed by the entry shows the natural chain unless it says otherwise.
UniProt P97480: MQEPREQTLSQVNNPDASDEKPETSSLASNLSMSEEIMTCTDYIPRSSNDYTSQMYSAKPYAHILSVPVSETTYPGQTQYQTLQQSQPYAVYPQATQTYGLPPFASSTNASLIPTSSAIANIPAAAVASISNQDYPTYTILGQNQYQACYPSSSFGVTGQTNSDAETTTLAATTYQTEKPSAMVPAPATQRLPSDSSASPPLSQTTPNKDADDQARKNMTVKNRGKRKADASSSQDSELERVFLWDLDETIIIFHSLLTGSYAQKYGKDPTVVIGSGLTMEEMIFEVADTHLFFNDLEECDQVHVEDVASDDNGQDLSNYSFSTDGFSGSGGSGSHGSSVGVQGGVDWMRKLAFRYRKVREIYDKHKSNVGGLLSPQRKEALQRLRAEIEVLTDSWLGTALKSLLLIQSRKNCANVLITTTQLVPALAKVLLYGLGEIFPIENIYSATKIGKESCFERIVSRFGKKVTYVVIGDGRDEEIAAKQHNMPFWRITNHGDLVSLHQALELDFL

Target: T1, Six2 fragment derived from mouse Six protein (SEQ ID NO. 6) (mouse) (UniProt Q62232)
T1 sequence: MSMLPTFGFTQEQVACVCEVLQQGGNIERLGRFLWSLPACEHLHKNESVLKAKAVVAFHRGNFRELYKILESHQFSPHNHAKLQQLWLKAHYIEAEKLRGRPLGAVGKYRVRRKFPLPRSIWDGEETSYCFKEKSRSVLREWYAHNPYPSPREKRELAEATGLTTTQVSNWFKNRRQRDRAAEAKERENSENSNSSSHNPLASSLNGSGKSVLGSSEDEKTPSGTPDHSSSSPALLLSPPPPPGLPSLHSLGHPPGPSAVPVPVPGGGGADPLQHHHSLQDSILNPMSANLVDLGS
Experiment: electrophoretic mobility shift assay, myogenin promoter DNA probe, Six2 alone or with Eya3(ED)

With Eya3(ED) (from UniProt P97480) (enzyme) the binding was “binds”.

These are yes or no findings as the source states them, for the method shown. Binding calls can cover weak binding; strength is not graded here.
